# Source: the supplement of paper PMC7024190
# Structures can show the parent of a compound that is named as a salt. This is one part of the list. This data set is noisy: repeats of one test often differ as much as different tests do.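 A first-round screen of about ten thousand compounds sought those raising reporter output, using human embryonic kidney cells briefly transfected with a plasmid carrying a Renilla luciferase gene driven by the HSV-TK promoter.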
# Test system: HEK 293FT
# Test: log relative Renilla luciferase luminescence (reporter expression vs reference, reference not stated) (log (base not stated)); higher = higher recombinant reporter expression
# Details: 10 µM; time after transfection 48 h
row,SMILES,log
1,Cc1sc(N)c(C(=O)c2cccc(C(F)(F)F)c2)c1C,-0.0861
2,COc1cc([C@@H]2c3cc4c(cc3[C@@H](O[C@@H]3O[C@@H]5CO[C@@H](C)O[C@H]5[C@H](O)[C@H]3O)[C@H]3COC(=O)[C@H]23)OCO4)cc(OC)c1O [Etoposide],-0.77
3,CCN(CC)CC1CCCCN1CC(=O)N1c2ccccc2C(=O)Nc2cccnc21 (stereo not drawn),-0.274
4,NC(=O)OCC(COC(N)=O)c1ccccc1 [Felbamate],-0.209
5,CN(C)CCCC1(c2ccc(F)cc2)OCc2cc(C#N)ccc21 (stereo not drawn) [Citalopram hydrobromide],-0.0971
6,COc1cc(N)c(Cl)cc1C(=O)NC1CCN(CCCOc2ccc(F)cc2)CC1OC (stereo not drawn) [Cisapride],0.0917
7,Nc1nc2ccc(Cl)cc2c2nc(-c3ccco3)nn12,0.211
8,OCc1cc(C(O)CNCCCCCCOCCCCc2ccccc2)ccc1O (stereo not drawn) [Salmeterol],-0.0165
